Library screen at single concentrations

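Whole-parasite assay of Trypanosoma brucei over 72 hours; the read-out is not stated. Compounds at 30 µM. Higher reads as stronger inhibition (inferred: compounds with an IC50 in retests scored well above the rest). Values scatter widely below zero; nearly all retest evidence comes from the higher of the two concentrations used. Size under these conditions: about 64,000 compounds, about 940 of them at 50% or above in at least one test.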

Values are the deposited “Percent Effect”, in %.
The record does not define 0% and 100%; most values in the screen are far below 50% and negative numbers occur (in some assays of this library far below -100).
The compounds are a random part of those screened.

| # | structure | percent effect |
|---|---|---|
| 1 | `O=C(CCn1cccn1)NCCOc1cccc(Cl)c1` | -12.97% |
| 2 | `O=C(NCCCN1CCOCC1)c1cccc(OCc2ccccc2)c1` | 14.98% |
| 3 | `CCc1ccc(C2CC(=O)Nc3c2c(=O)[nH]n3C(C)C)cc1` (stereo not shown) | 1.898% |
| 4 | `NC(=O)CN1CC(c2nc(C3CC3)no2)C1.O=C(O)C(=O)O` | -14.13% |
| 5 | `CC(C)(C)n1ncc2c1NC(=O)CC2c1ccccc1` (stereo not shown) | 40.68% |
| 6 | `c1ccc(Cc2nnc(CN3CCn4c(nnc4C4CC4)C3)o2)cc1` | 11.65% |
| 7 | `[H][C@]12CN(CCN3CCCC3)C(=O)[C@@]1([H])CN(c1cc(OC)ncn1)C2` | -59.89% |
| 8 | `COCc1noc(Cn2ccc3ccccc3c2=O)n1` | -3.934% |
| 9 | `N#Cc1cccc(C(=O)N2CCn3c(Cn4cncn4)cnc3C2)c1` | -5.586% |
| 10 | `CNS(=O)(=O)c1ccc(CNC(=O)NCC2CCOC2)cc1` (stereo not shown) | -11.22% |
| 11 | `Cc1noc(C)c1C[S+]([O-])Cc1cn2cccc(C)c2n1` (stereo not shown) | 5.534% |
| 12 | `Cc1ccc(CN2Cc3nnn(C)c3C(COCC3CC3)C2)o1.O=C(O)C(F)(F)F` (stereo not shown) | -28.16% |
| 13 | `c1ccc(COc2ccccc2NC2CCOCC2)nc1` | -58.63% |
| 14 | `CC1CCCN1Cc1ccccc1-c1nc(C(C)(C)C)cc(=O)[nH]1` (stereo not shown) | -16.36% |
| 15 | `OC(CN1CCC(c2ccn[nH]2)CC1)c1cccc(F)c1` (stereo not shown) | -38.48% |
| 16 | `CCCc1n[nH]c(=O)n1Cc1ccc(OC)cc1` | -37.44% |
| 17 | `COc1c(C2CCCN2C(=O)c2cccc(C(N)=O)c2)c(C)nn1C` (stereo not shown) | -42.9% |
| 18 | `Cc1nonc1CN1CC[C@@](O)(C2CCOCC2)[C@H](C)C1` | -43.64% |
| 19 | `CCCC(=O)N1CCCCC1c1nccc(C)n1` (stereo not shown) | -26.21% |
| 20 | `Br.O=C(CN(C1=NCCCC1)c1ccccc1)c1ccc2c(c1)OCCO2` | -12.17% |
| 21 | `CCc1ccc2c(c1)C(CCNC(=O)CSC(F)(F)F)C(=O)N2` (stereo not shown) | -15.57% |
| 22 | `CC(=O)N1CC2(CCCC2)c2ccccc21` | -8.971% |
| 23 | `Cc1nc(C2CCCN(C(=O)CCCOc3cccc(F)c3)C2)no1` (stereo not shown) | -5.677% |
| 24 | `CCOc1ccccc1C(=O)NS(=O)(=O)c1ccc2c(c1)OCCCO2` | -5.587% |
| 25 | `CC(C)c1nc2c(n1C)CCN(CCCOc1ccc(C#N)cc1)C2` | 21.89% |
| 26 | `Cn1nnc2c1CCN(Cc1ccccn1)C2COCc1ccccc1.O=C(O)C(F)(F)F.O=C(O)C(F)(F)F` (stereo not shown) | -0.05034% |
| 27 | `COc1ccc2c(c1)NC(C1CCNCC1)NS2(=O)=O` (stereo not shown) | -8.874% |
| 28 | `c1cncc(OCc2noc3c2CN(Cc2ccoc2)CC3)c1` | 7.064% |
| 29 | `Cc1nc(CNC(=O)NCC(F)(F)F)oc1C` | 4.116% |
| 30 | `CC(C)[C@H]1CN(Cc2ccccn2)C[C@@H]1NS(=O)(=O)C1CC1` | -50.56% |
| 31 | `CC1(C)Cc2ccccc2-c2nc(NCCO)[nH]c(=O)c21` | 14.7% |
| 32 | `COCCn1cncc1CN1CCCC(C(=O)Cc2ccccc2)C1` (stereo not shown) | -7.509% |
| 33 | `O=C(NCC1(O)CCCCC1)c1coc(COc2cccc(F)c2)n1` | -290.3% |
| 34 | `c1ccc2[nH]c(C3CCN(Cc4nc(C5CC5)no4)CC3)cc2c1` | -4.641% |
| 35 | `Cc1nn(C)c2nc(N(Cc3ccccn3)CC3CCCO3)sc12` (stereo not shown) | -11.3% |
| 36 | `Cc1nccn1-c1ccc(CNC(=O)c2ccc[nH]2)cn1` | -3.473% |
| 37 | `Cc1cccc(OCC(=O)NS(=O)(=O)Cc2ccccc2)c1` | 3.849% |
| 38 | `COc1ccc(S(=O)(=O)NC(=O)COC2CCCCC2)cc1` | -6.105% |
| 39 | `O=C(c1ccc2c(c1)CCC2)N1CCCCC1C1OCCO1` (stereo not shown) | -6.975% |
| 40 | `CCC[C@H]1CN(CCS(C)(=O)=O)C[C@@H]1NC(=O)c1cc(CC)on1` | -6.09% |
| 41 | `COc1ccc(CSc2nnc(N)n2C2CC2)cc1Cl` | 2.11% |
| 42 | `O=C(NC1CCS(=O)(=O)c2ccccc21)c1cccs1` (stereo not shown) | -17.23% |
| 43 | `O=C(c1nc(=O)[nH][nH]1)N1CCCC(c2cc(C(F)(F)F)[nH]n2)C1` (stereo not shown) | 0.5931% |
| 44 | `Cc1n[nH]c(C)c1Sc1ccccc1NC(=O)N1CCOCC(O)C1` (stereo not shown) | -41.16% |
| 45 | `Cn1ncc2c(NCC3CCCN3c3cccnn3)ncnc21` (stereo not shown) | -3.864% |
| 46 | `CNc1cc(C)nc(N2Cc3cnn(Cc4ccc(F)cc4)c3C2)n1` | 98.86% |
| 47 | `C1CCC(CNC2CCCN(Cc3noc(C4CC4)n3)C2)CC1` (stereo not shown) | 78.83% |
| 48 | `Cn1cc(C(=O)NC2CCN(C(=O)NCCSC(F)(F)F)CC2)cn1` | 1.692% |
| 49 | `CNC(=O)[C@@H](CC(C)C)N1CCC[C@H]1C(=O)N(C)Cc1ccccc1.Cl` | -0.5544% |
| 50 | `COc1cccc(-c2noc(C3CCN(Cc4ccccc4F)C3)n2)c1.Cl` (stereo not shown) | -18.78% |
| 51 | `O=c1c(NCc2ccncc2)c(NCC(O)CN2CCOCC2)c1=O` (stereo not shown) | -32.96% |
| 52 | `CCOc1ncccc1NC(=O)NC1CCCN(c2ncccn2)C1` (stereo not shown) | 4.319% |
| 53 | `CC(c1nc(C(C)(C)C)no1)N1CCN(Cc2ccc(C#N)cc2)CC1` (stereo not shown) | 27.32% |
| 54 | `CCOC(=O)NC(CNC(=O)c1cn(C)cn1)CC(C)C` (stereo not shown) | 5.391% |

Some entries from above, unchanged:

structure	percent effect
Br.O=C(CN(C1=NCCCC1)c1ccccc1)c1ccc2c(c1)OCCO2	-12.17%
Cn1ncc2c(NCC3CCCN3c3cccnn3)ncnc21 (stereo not shown)	-3.864%
OC(CN1CCC(c2ccn[nH]2)CC1)c1cccc(F)c1 (stereo not shown)	-38.48%
CCCc1n[nH]c(=O)n1Cc1ccc(OC)cc1	-37.44%
CCOC(=O)NC(CNC(=O)c1cn(C)cn1)CC(C)C (stereo not shown)	5.391%
CCOc1ncccc1NC(=O)NC1CCCN(c2ncccn2)C1 (stereo not shown)	4.319%

The values are deposited in ChEMBL (CHEMBL3988442, “University of Dundee, Small-Polar-MMV Screening Library” (2021)).